No constants are given. Whether binding was seen depends on the method and setting. Some results given as binding are weak or reduced against the parent protein; the word gives no strength.
What was measured:
[1] = biological target: N0N1PilQ^343–545 (N0/N1 double domain of N. meningitidis PilQ) (N. meningitidis) (UniProt Q70M91); experiment: NMR titration; natural-abundance PilP^77–164 titrated into 15N 13C PilQ (N0PilQ^343–442 or N0N1PilQ^343–545); [PilQ]:[PilP] 1:0.1 to 1:1; peak attenuation; both purified
[2] = biological target: N0PilQ^343–442 (N0 domain of N. meningitidis PilQ) (N. meningitidis) (UniProt Q70M91); experiment: as above
[3] = biological target: PilP^77–164 (C-terminal domain of the PilP lipoprotein, N. meningitidis) (N. meningitidis) (UniProt Q7DD77); experiment: NMR titration; unlabelled PilQ fragment titrated into 50 µM 15N-labelled PilP^77–164; [PilP]:[PilQ] 1:0.1 to 1:1; 2D 1H-15N HSQC; 50 mM NaCl, 50 mM sodium phosphate pH 6.8; 298 K; peak attenuation; both purified

Protein sequences, listed by entry. Tags and fused reporters are not part of them. Residues count along the entry.
N0N1PilQ^343–545 (N0/N1 double domain of N. meningitidis PilQ) (Q70M91, residues 343-545): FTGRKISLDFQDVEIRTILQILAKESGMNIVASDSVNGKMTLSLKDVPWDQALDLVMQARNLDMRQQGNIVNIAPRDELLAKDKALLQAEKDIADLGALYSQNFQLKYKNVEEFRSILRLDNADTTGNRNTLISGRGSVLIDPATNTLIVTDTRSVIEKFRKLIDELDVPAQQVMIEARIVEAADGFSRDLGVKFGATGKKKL
N0PilQ^343–442 (N0 domain of N. meningitidis PilQ) (Q70M91, residues 343-442): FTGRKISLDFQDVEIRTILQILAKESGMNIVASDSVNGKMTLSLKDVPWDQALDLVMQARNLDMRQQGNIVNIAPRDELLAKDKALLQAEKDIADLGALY
UniProt Q7DD77, residues 77-164: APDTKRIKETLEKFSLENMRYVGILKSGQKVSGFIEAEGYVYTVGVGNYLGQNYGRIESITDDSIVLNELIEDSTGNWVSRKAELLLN

Substance	binding [1]	binding [2]	binding [3]
PilP^77–164 (C-terminal domain of the PilP lipoprotein, N. meningitidis) (from UniProt Q7DD77 77-164) (domain or fragment)	binds	binds	–
N0N1PilQ^343–545 (N0/N1 double domain of N. meningitidis PilQ) (from UniProt Q70M91 343-545) (domain or fragment)	–	–	binds
